These results are taken from the supplement of paper PMC10849652.

Amino acid sequences for entries named in this document (tags omitted). A change or cut given only in a name is not applied to a line headed by its entry.
UniProt P21675, whole entry, looked up: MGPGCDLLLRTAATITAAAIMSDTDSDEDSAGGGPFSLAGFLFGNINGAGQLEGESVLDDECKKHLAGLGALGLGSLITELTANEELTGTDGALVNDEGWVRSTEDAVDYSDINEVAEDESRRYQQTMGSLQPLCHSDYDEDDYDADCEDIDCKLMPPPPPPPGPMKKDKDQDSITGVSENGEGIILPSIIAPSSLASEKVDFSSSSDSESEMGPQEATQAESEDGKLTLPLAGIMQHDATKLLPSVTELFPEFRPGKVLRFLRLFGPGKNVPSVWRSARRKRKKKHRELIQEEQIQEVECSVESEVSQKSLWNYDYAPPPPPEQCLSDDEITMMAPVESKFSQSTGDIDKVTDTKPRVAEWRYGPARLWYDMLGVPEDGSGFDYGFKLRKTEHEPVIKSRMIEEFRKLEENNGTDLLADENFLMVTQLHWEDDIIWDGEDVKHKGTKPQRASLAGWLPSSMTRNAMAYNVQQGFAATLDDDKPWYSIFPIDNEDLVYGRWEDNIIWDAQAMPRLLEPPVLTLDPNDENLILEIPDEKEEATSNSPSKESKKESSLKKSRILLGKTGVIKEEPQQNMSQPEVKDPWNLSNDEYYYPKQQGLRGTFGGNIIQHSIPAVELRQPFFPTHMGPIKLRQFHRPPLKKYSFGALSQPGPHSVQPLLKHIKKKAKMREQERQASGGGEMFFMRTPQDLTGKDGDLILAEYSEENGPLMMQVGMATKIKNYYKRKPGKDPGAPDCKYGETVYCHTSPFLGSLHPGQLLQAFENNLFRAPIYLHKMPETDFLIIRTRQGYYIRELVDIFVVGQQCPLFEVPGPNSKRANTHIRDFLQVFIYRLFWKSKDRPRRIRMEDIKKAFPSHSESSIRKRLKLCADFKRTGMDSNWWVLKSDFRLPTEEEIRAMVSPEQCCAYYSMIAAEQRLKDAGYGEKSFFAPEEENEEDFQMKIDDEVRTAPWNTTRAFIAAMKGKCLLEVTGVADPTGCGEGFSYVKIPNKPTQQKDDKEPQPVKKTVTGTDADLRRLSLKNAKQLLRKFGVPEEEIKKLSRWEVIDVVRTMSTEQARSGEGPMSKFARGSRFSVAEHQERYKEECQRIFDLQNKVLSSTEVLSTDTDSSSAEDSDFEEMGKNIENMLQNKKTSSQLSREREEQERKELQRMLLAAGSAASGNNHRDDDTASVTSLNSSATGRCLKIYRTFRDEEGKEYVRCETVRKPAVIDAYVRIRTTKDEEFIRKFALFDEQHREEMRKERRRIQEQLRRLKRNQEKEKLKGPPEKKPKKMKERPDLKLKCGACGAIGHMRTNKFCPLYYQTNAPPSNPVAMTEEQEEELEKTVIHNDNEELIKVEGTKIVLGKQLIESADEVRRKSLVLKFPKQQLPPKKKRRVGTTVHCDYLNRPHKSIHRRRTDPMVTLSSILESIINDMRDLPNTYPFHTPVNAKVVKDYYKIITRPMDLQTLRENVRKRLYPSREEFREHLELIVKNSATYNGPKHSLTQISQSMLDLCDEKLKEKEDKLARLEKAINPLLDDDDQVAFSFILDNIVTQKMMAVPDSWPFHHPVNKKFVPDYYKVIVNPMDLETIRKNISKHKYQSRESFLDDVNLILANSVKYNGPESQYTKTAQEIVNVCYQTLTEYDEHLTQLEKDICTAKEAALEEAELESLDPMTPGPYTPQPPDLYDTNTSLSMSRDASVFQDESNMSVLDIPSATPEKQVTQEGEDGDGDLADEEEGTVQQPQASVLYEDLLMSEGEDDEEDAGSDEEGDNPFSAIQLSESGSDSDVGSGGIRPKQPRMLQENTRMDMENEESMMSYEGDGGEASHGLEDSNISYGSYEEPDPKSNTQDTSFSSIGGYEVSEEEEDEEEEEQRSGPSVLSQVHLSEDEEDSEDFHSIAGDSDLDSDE
UniProt Q5T011: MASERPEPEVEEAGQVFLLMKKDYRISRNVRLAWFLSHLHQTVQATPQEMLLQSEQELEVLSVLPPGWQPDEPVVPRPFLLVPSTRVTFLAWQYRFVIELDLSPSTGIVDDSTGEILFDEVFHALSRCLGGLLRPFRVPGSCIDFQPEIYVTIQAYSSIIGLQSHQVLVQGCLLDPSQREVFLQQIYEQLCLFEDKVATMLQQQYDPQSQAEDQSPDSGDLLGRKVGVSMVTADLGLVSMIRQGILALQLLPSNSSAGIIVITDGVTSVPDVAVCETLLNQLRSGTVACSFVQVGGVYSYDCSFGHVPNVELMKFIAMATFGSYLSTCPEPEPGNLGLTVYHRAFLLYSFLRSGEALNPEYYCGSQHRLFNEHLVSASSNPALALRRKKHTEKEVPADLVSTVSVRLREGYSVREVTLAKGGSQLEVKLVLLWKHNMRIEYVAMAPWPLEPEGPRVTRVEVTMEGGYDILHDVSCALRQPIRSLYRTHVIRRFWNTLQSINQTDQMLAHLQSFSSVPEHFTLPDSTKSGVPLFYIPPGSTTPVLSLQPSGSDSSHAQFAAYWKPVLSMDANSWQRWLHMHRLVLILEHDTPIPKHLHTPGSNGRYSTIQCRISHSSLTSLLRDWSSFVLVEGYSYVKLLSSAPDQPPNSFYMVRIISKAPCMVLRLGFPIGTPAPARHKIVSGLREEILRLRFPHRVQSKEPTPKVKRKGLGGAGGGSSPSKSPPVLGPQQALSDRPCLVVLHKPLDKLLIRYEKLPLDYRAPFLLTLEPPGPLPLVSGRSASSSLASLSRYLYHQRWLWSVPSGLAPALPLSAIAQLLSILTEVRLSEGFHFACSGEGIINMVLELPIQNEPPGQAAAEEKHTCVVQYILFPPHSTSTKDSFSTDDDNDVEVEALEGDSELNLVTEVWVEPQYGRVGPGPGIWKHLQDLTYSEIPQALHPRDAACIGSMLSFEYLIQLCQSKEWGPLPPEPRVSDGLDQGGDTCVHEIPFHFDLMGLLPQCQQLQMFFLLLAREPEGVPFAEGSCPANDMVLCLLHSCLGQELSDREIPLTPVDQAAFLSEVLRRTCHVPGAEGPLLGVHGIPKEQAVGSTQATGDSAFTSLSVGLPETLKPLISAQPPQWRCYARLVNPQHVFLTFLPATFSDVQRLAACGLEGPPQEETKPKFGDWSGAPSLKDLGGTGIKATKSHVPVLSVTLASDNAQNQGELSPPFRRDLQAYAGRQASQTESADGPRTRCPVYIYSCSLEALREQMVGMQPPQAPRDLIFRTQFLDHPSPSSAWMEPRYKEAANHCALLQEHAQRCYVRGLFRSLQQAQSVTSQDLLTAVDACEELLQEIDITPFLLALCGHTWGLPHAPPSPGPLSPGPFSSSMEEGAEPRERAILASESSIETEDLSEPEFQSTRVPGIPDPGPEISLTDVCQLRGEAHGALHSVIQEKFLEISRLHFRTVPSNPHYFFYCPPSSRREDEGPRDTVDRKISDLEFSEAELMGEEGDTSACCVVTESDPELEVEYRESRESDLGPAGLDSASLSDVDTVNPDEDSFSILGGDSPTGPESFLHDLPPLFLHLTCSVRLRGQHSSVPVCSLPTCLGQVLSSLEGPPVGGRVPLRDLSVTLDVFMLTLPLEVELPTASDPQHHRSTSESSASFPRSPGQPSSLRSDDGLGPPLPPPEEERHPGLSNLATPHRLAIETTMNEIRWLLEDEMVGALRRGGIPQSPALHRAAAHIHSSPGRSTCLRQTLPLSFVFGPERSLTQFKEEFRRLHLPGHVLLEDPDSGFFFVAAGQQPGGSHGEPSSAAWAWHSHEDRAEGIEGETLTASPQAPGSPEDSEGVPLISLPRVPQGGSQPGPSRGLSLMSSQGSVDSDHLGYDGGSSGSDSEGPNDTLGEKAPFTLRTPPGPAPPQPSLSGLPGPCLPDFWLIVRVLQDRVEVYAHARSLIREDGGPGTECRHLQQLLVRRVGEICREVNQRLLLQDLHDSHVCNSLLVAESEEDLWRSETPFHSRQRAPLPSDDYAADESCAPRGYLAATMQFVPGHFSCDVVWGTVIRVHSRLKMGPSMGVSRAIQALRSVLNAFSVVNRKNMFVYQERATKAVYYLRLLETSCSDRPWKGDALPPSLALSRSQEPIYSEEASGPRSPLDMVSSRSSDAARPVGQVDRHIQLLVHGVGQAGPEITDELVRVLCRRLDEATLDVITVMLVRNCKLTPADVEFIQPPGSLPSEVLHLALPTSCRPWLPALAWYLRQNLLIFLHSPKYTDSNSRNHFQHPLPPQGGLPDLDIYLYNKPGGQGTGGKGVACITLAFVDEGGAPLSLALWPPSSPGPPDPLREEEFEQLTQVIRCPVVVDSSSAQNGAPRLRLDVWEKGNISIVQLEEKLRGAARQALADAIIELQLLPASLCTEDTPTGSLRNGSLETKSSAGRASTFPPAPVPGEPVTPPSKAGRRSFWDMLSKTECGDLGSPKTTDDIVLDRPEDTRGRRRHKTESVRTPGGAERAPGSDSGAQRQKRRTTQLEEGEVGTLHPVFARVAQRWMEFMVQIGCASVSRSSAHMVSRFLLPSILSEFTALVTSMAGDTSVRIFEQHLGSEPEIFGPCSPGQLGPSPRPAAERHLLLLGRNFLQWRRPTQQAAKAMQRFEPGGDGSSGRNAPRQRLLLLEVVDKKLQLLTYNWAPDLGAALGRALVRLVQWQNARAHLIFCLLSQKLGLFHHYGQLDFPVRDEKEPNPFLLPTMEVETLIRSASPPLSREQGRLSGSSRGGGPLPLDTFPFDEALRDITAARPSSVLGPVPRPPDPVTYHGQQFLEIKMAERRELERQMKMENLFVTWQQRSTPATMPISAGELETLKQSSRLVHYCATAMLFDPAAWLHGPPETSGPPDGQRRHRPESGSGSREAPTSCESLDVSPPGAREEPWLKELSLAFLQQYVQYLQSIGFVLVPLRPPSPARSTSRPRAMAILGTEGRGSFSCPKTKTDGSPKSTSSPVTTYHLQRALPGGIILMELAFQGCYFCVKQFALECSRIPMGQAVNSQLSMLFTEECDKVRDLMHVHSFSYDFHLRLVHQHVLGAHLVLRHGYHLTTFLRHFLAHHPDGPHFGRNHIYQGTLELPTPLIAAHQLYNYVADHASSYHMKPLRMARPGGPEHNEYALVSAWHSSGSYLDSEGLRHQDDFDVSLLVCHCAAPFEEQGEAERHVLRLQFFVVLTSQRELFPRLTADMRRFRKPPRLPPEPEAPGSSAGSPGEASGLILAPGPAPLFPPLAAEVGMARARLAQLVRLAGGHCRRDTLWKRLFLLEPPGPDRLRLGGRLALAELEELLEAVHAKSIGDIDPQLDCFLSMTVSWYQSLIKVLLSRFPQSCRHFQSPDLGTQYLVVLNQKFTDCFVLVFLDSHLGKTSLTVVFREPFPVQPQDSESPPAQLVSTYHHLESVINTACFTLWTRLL
UniProt Q8NFX7: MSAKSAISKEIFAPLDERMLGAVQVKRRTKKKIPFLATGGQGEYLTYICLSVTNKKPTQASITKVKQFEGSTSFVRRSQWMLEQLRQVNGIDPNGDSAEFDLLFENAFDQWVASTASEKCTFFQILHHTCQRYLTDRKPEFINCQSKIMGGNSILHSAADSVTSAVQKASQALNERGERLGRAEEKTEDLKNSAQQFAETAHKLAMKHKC
UniProt P0DMM9: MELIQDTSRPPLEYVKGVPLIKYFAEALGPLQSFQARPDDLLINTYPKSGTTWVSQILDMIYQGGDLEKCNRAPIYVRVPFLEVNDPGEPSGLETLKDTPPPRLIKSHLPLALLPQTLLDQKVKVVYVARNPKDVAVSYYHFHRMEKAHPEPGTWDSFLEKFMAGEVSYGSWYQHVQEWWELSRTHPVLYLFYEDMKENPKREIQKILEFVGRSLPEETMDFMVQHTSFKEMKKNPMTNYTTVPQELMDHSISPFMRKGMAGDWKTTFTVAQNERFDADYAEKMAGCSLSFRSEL
UniProt P08842: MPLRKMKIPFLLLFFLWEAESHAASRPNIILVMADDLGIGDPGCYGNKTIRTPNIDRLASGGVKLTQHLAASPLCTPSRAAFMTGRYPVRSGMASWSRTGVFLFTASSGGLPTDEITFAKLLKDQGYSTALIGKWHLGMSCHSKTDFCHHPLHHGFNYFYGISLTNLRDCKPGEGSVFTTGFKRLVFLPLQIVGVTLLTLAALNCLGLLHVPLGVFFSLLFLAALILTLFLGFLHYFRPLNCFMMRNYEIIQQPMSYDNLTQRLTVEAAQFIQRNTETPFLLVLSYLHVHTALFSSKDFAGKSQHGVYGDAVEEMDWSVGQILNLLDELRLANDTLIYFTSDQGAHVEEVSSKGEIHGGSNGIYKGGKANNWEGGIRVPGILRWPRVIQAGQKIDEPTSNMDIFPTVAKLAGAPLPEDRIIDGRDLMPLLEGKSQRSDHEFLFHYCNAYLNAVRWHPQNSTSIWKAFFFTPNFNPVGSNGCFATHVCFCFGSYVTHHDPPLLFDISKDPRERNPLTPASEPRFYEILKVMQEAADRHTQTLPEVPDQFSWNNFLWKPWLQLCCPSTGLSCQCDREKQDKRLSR
UniProt Q15543, whole entry, looked up: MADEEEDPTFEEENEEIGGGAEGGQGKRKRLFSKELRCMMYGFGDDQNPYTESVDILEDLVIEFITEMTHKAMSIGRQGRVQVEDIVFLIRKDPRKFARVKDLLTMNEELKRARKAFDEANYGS

Some of the results follow.

Compound in the first experiment: CS(=O)(=O)CCNCc1ccc(-c2ccc3ncnc(Nc4ccc(OCc5cccc(F)c5)c(Cl)c4)c3c2)o1 [lapatinib]
The experiment is described as follows: log2 fold change, soluble protein after heating vs DMSO (PISA); higher = thermal stabilisation; K562 lysate, 10 uM; active = over 0.2 and 3.5 SD of the protein, either way, in both replicates (recomputed). A digest of the protocol: (§1)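 K562 pellets were dounce-homogenised in PBS pH 7.4 containing 1 mM MgCl2, and the crude extract, at 1 mg/mL protein, was exposed to 10 μM compound for 30 min. Aliquots were heated for 3 min across 48°C-58°C, pooled, brought to 0.5% NP-40 at 4°C and spun at 21,000xg for 90 min, with the supernatant taken as soluble protein. TMTpro 16plex LC-MS/MS with equalised channel sums quantified that protein. Values are log-two fold changes in thermal stability relative to solvent controls, taken from duplicates.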
Turning to STIM2 isoform 2 (UniProt Q9P246), the log2 fold change was inactive: -0.103.

For SUSD3 (UniProt Q96L08), the log2 fold change was inactive: 0.092.

SUPT3H (UniProt O75486): the log2 fold change is inactive: 0.097.

As to STK16 (UniProt O75716), the log2 fold change is inactive: -0.156.

For the target STK35 (UniProt Q8TDR2), the log2 fold change is inactive: -0.059.

Turning to TAF1 isoform 4 (UniProt P21675), the log2 fold change is inactive: 0.061.

On to SUFU (UniProt Q9UMX1), for which the log2 fold change is inactive: -0.163.

SZT2 (UniProt Q5T011): the log2 fold change was inactive: 0.275.

Take TAF11 (UniProt Q15544): the log2 fold change is inactive: 0.003.

Consider SYK (UniProt P43405), for which the log2 fold change was inactive: -0.086.

In the case of SYTL2 isoform 8 (UniProt Q9HCH5), the log2 fold change was inactive: -0.069.

Turning to TAF3 (UniProt Q5VWG9), the log2 fold change was inactive: -0.026.

On to TAF5 (UniProt Q15542), for which the log2 fold change was inactive: -0.162.

Compound in the next experiment: CS(=O)(=O)N1CCN(Cc2cc3nc(-c4cccc5[nH]ncc45)nc(N4CCOCC4)c3s2)CC1 [pictilisib]
The experiment is described as above. A digest of the protocol:
as §1
Turning to SYNGR3 (UniProt O43761), the log2 fold change was inactive: -0.052.

As to STXBP6 (UniProt Q8NFX7), the log2 fold change is inactive: -0.154.

Consider SYNM (UniProt O15061), for which the log2 fold change is inactive: 0.043.

Take STK35 (UniProt Q8TDR2): the log2 fold change is inactive: 0.015.

As for SZT2 (UniProt Q5T011), the log2 fold change was inactive: 0.189.

On to STRN3 isoform 2 (UniProt Q13033), for which the log2 fold change is inactive: 0.052.

For SULT1A3 isoform 3 (UniProt P0DMM9), the log2 fold change was inactive: -0.033.

TAF5L (UniProt O75529): the log2 fold change is inactive: -0.097.

Take TAF1C (UniProt Q15572): the log2 fold change is inactive: 0.047.

In the case of SYK (UniProt P43405), the log2 fold change is inactive: 0.017.

Turning to STS (UniProt P08842), the log2 fold change is inactive: -0.249.

In the case of SYTL2 isoform 8 (UniProt Q9HCH5), the log2 fold change was inactive: -0.094.

SYNGR1 isoform 2 (UniProt O43759): the log2 fold change is inactive: -0.09.

In the case of TAF5 (UniProt Q15542), the log2 fold change was inactive: -0.086.

Consider STK10 (UniProt O94804), for which the log2 fold change is inactive: -0.046.

Compound in a further experiment: C[C@@H](Oc1cc(-c2cnn(C3CCNCC3)c2)cnc1N)c1c(Cl)ccc(F)c1Cl [crizotinib]
Described as above. Put shortly: as §1
With STIM2 isoform 2 (UniProt Q9P246), the log2 fold change was inactive: -0.015.

Regarding TADA2B (UniProt Q86TJ2), the log2 fold change was inactive: 0.082.

In the case of SUPT3H (UniProt O75486), the log2 fold change was inactive: 0.047.

For the target STK26 isoform 3 (UniProt Q9P289), the log2 fold change was inactive: 0.095.

As to STK16 (UniProt O75716), the log2 fold change was inactive: -0.054.

In the case of STXBP6 (UniProt Q8NFX7), the log2 fold change was inactive: 0.067.

Consider SUSD1 isoform 2 (UniProt Q6UWL2), for which the log2 fold change was inactive: 0.038.

As for STK17B (UniProt O94768), the log2 fold change was inactive: -0.255.

With TADA2A (UniProt O75478), the log2 fold change was inactive: 0.

Take TAF1 isoform 4 (UniProt P21675): the log2 fold change is inactive: -0.014.

Take SVBP (UniProt Q8N300): the log2 fold change was inactive: 0.102.

SUFU (UniProt Q9UMX1): the log2 fold change was inactive: -0.028.

As to SYCE2 (UniProt Q6PIF2), the log2 fold change was inactive: 0.077.

With TAF11 (UniProt Q15544), the log2 fold change was inactive: -0.085.

For the target STK38L (UniProt Q9Y2H1), the log2 fold change is inactive: -0.059.

In the case of STK19 (UniProt P49842), the log2 fold change is inactive: -0.031.

As for SULT1A3 isoform 3 (UniProt P0DMM9), the log2 fold change is inactive: -0.095.

Turning to TAF5L (UniProt O75529), the log2 fold change is inactive: 0.02.

TAF1C (UniProt Q15572): the log2 fold change is inactive: -0.042.

Turning to STS (UniProt P08842), the log2 fold change is inactive: 0.02.

As for SUCO isoform 2 (UniProt Q9UBS9), the log2 fold change is inactive: -0.016.

On to SYNGR1 isoform 2 (UniProt O43759), for which the log2 fold change was inactive: -0.023.

With STK10 (UniProt O94804), the log2 fold change is inactive: -0.213.

Compound in another experiment: C[C@H](C1=CC=C(C=C1)C(=O)NC2=C3C=CNC3=NC=C2)N
Described as above. A digest of the protocol:
as §1
As for STIM2 isoform 2 (UniProt Q9P246), the log2 fold change was inactive: 0.016.

For the target SUSD3 (UniProt Q96L08), the log2 fold change is inactive: -0.046.

For SUPT3H (UniProt O75486), the log2 fold change was inactive: 0.092.

Take STXBP6 (UniProt Q8NFX7): the log2 fold change was inactive: 0.197.

As to SYNM (UniProt O15061), the log2 fold change was inactive: -0.078.

For SUSD1 isoform 2 (UniProt Q6UWL2), the log2 fold change was inactive: -0.036.

Consider SUSD6 (UniProt Q92537), for which the log2 fold change was inactive: -0.07.

For STK35 (UniProt Q8TDR2), the log2 fold change is inactive: -0.095.

In the case of TAF1 isoform 4 (UniProt P21675), the log2 fold change is inactive: -0.034.

For the target SVBP (UniProt Q8N300), the log2 fold change is inactive: 0.005.

For the target SUFU (UniProt Q9UMX1), the log2 fold change is inactive: -0.244.

Regarding SZT2 (UniProt Q5T011), the log2 fold change was inactive: -0.108.

TAF11 (UniProt Q15544): the log2 fold change was inactive: -0.036.

STRN3 isoform 2 (UniProt Q13033): the log2 fold change is inactive: -0.051.

For SULT1A3 isoform 3 (UniProt P0DMM9), the log2 fold change is inactive: 0.064.

For the target TAF5L (UniProt O75529), the log2 fold change was inactive: 0.058.

As to TAF13 (UniProt Q15543), the log2 fold change was inactive: -0.057.

In the case of TAF1C (UniProt Q15572), the log2 fold change is inactive: 0.045.

For the target SYK (UniProt P43405), the log2 fold change was active: -0.479.

As to STS (UniProt P08842), the log2 fold change is inactive: -0.103.

TAF3 (UniProt Q5VWG9): the log2 fold change is inactive: -0.05.

Turning to SYNGR1 isoform 2 (UniProt O43759), the log2 fold change is inactive: -0.067.

As for STK17A (UniProt Q9UEE5), the log2 fold change was inactive: 0.315.

On to TAF5 (UniProt Q15542), for which the log2 fold change is inactive: 0.015.

With STRN3 (UniProt H0YJT2), the log2 fold change was inactive: -0.087.
